Reference: patent publication US8901038B2, “Biphenyl-substituted cyclic ketoenols” (Bayer CropScience AG, priority 2010, dated 2014)
Some results were stated once for a whole list of compounds, not compound by compound. Some ranges recur; such a range may be that of the whole group of compounds.

What was measured:
Type in all cases: in vivo
Lolium multiflorum [1] = assay: Herbicidal pre-emergence action; conditions: pre-emergence method, 320 g of a.i./ha; visual assessment after about 3 weeks
Setaria viridis [2] = assay: Herbicidal pre-emergence action; conditions: pre-emergence method, 320 g of a.i./ha; visual assessment after about 3 weeks
Echinocloa crus-galli [3] = assay: Herbicidal pre-emergence action; conditions: pre-emergence method, 320 g of a.i./ha; visual assessment after about 3 weeks
Alopecurus myosuroides [4] = assay: Herbicidal post-emergence action; conditions: post-emergence method, 80 g/ha; rated visually after about 3 weeks
Lolium multiflorum [5] = assay: Herbicidal post-emergence action; conditions: post-emergence method, 80 g/ha; rated visually after about 3 weeks
Alopecurus myosuroides [6] = assay: Herbicidal pre-emergence action; conditions: pre-emergence method, 320 g of a.i./ha; visual assessment after about 3 weeks
Setaria viridis [7] = assay: Herbicidal post-emergence action; conditions: post-emergence method, 80 g/ha; rated visually after about 3 weeks
Echinocloa crus-galli [8] = assay: Herbicidal post-emergence action; conditions: post-emergence method, 80 g/ha; rated visually after about 3 weeks
Avena fatua = assay: Herbicidal post-emergence action; conditions: post-emergence method, 80 g/ha; rated visually after about 3 weeks

Row | SMILES | efficacy (herbicidal effect) (Lolium multiflorum [1]) | efficacy (herbicidal effect) (Setaria viridis [2]) | efficacy (herbicidal effect) (Echinocloa crus-galli [3]) | efficacy (herbicidal effect) (Alopecurus myosuroides [4]) | efficacy (herbicidal effect) (Lolium multiflorum [5]) | efficacy (herbicidal effect) (Alopecurus myosuroides [6]) | efficacy (herbicidal effect) (Setaria viridis [7]) | efficacy (herbicidal effect) (Echinocloa crus-galli [8]) | efficacy (herbicidal effect) (Avena fatua)
1 | CCOC(=O)OC1=C(c2c(CC)ccc(-c3ccc(F)cc3)c2C)C(=O)NC12CCC(OC)CC2 (single isomer, unassigned) [Example I-1-c-3] | 80-100% | 80-100% | 80-100% | 90-100% | 90-100% | 80-100% | 90-100% | 90-100% | 
2 | CCc1ccc(-c2ccc(Cl)cc2)c(C)c1C1=C(O)C2(CCC(OC)CC2)OC1=O (single isomer, unassigned) [Example I-2-a-6] |  |  |  | 90-100% | 90-100% |  | 90-100% | 90-100% | 
3 | CCc1ccc(-c2ccc(Cl)cc2)c(C)c1C1=C(O)C2(CCOCC2)NC1=O [Example I-1-a-3] | 80-100% | 80-100% | 80-100% | 80-100% | 80-100% | 80-100% | 80-100% | 80-100% | 80-100%
4 | CCc1ccc(-c2ccc(F)cc2)c(C)c1C1=C(O)C2(CCC(OC)CC2)NC1=O (stereo not shown) [Example I-1-a-4] | 80-100% | 80-100% | 80-100% | 90-100% | 90-100% | 80-100% | 90-100% | 90-100% | 
5 | CCc1cc(C)c(-c2ccc(Cl)cc2)c(C)c1C1=C(O)C2(CCC(OC)CC2)NC1=O (stereo not shown) [Example I-1-a-7] | 80-100% | 80-100% | 80-100% |  |  | 80-100% |  |  | 
6 | CCc1cc(C)c(-c2ccc(Cl)cc2)c(C)c1C1=C(O)C2(CCOCC2)NC1=O [Example I-1-a-8] |  |  |  | 90-100% | 90-100% |  | 90-100% | 90-100% | 
7 | Cc1ccc(-c2ccc(Cl)cc2)c(Cl)c1C1=C(O)C2(CCOCC2)NC1=O [Example I-1-a-11] | 80-100% | 80-100% | 80-100% | 80-100% | 80-100% | 80-100% | 80-100% | 80-100% | 80-100%
8 | COC1CCC2(CC1)NC(=O)C(c1c(Cl)ccc(-c3ccc(F)cc3)c1C)=C2O (stereo not shown) [Example I-1-a-14] | 80-100% | 80-100% | 80-100% |  |  | 80-100% |  |  | 
9 | CCc1c(-c2ccc(Cl)cc2)ccc(C)c1C1=C(O)C2(CCC(OC)CC2)NC1=O (stereo not shown) [Example I-1-a-16] | 80-100% | 80-100% | 80-100% |  |  | 80-100% |  |  | 
10 | CCc1ccc(-c2ccc(F)cc2)c(CC)c1C1=C(O)C2(CCC(OC)CC2)NC1=O (stereo not shown) [Example I-1-a-18] | 80-100% | 80-100% | 80-100% | 80-100% | 80-100% | 80-100% | 80-100% | 80-100% | 80-100%
11 | CCc1ccc(-c2ccc(Cl)cc2)c(CC)c1C1=C(O)C2(CCC(OC)CC2)NC1=O (stereo not shown) [Example I-1-a-19] | 80-100% | 80-100% | 80-100% | 90-100% | 90-100% | 80-100% | 90-100% | 90-100% | 
12 | CCc1ccc(-c2ccc(Cl)cc2)c(C)c1C1=C(O)C2(CCC(OC)CC2)NC1=O (stereo not shown) [Example I-1-a-21] | 80-100% | 80-100% | 80-100% |  |  | 80-100% |  |  | 
13 | CCON1CCC2(CC1)NC(=O)C(c1c(CC)ccc(-c3ccc(Cl)cc3)c1C)=C2O [Example I-1-a-22] | 80-100% | 80-100% | 80-100% | 80-100% | 80-100% | 80-100% | 80-100% | 80-100% | 80-100%
14 | CCc1ccc(-c2ccc(Cl)cc2)c(CC)c1C1=C(O)C2(CCN(OC)CC2)NC1=O [Example I-1-a-24] |  |  |  | 80-100% | 80-100% |  | 80-100% | 80-100% | 80-100%
15 | CCON1CCC2(CC1)NC(=O)C(c1c(CC)ccc(-c3ccc(Cl)cc3)c1CC)=C2O [Example I-1-a-25] | 80-100% | 80-100% | 80-100% |  |  | 80-100% |  |  | 
16 | CCc1ccc(-c2ccc(F)cc2)c(C)c1C1=C(OC(=O)C(C)C)C2(CCC(OC)CC2)NC1=O (stereo not shown) [Example I-1-b-3] | 80-100% | 80-100% | 80-100% |  |  | 80-100% |  |  | 
17 | CCc1ccc(-c2ccc(Cl)cc2)c(C)c1C1=C(OC(=O)C(C)C)C2(CCC(OC)CC2)NC1=O (stereo not shown) [Example I-1-b-4] | 80-100% | 80-100% | 80-100% | 90-100% | 90-100% | 80-100% | 90-100% | 90-100% | 
18 | CCOC(=O)OC1=C(c2c(CC)ccc(-c3ccc(Cl)cc3)c2C)C(=O)NC12CCC(OC)CC2 (stereo not shown) [Example I-1-c-2] | 80-100% | 80-100% | 80-100% |  |  | 80-100% |  |  | 
